These results are taken from PubChem BioAssay AID208 (DTP/NCI, 2004).

In the assay the test system is HT29 intrarenal xenograft, nude mice, tumor weight change. The assay is described as follows: NCI In Vivo Anticancer Drug Screen. Data for tumor model HT29;CX-1 Human Adenocarcinoma (MER+) (intrarenal inoculation) in NU/NU BALB/C (nude) mice. Conditions: T/C endpoint: mean tumor weight change, schedule: Q04DX004 (sc), higher T/C = larger tumour; for T/C: evaluated on day 15. The method, then: The antitumor activity of compounds was measured in mice bearing transplantable tumors. Survival or tumor size were measured and the results are expressed as the measurement made in the treated group (T) divided by the measurement made in the vehicle treated control group (C). The tumor model used in this assay is HT29;CX-1 Human Adenocarcinoma (MER+) (intrarenal inoculation) in NU/NU BALB/C (nude) mice

The list shows only some results of the screen, not a fair sample: it gathers some chemical classes. Other doses and runs of a compound may be missing. T/C: endpoint of the treated group in % of that of the vehicle group. Schedule codes are those of the source, taken here to give the interval after Q, in days (D) or hours (H), and the number of doses after X. Some T/C values carry the count of animals alive at the toxicity check; without a count or a note in brackets, all were alive then. Some entries give survivors of the animals treated and no T/C: the source files T/C as zero there, which appears to mark a toxic dose or a test without result, not a measured value. Counts of survivors are from the toxicity check, whose day is not always given; animals may have died later.

On to `ICCN(CCI)c1cccc2ccccc12`, for which the T/C (dose: 75.0 mg/kg/injection, vehicle: Klucel (hydroxypropylcellulose) (HPC)) was 128 % of control and the T/C (dose: 150.0 mg/kg/injection, vehicle: Klucel (hydroxypropylcellulose) (HPC)) was 87 % of control [5 of 6 alive on day 15]. The survivor count was 3 of 6 on day 15 (dose: 300.0 mg/kg/injection, vehicle: Klucel (hydroxypropylcellulose) (HPC)) and 0 of 6 on day 15 (dose: 600.0 mg/kg/injection, vehicle: Klucel (hydroxypropylcellulose) (HPC)).

Consider `CC1(C)CN1P(=O)(Nc1ncccn1)N1CC1(C)C` (stereo not given), for which the T/C runs as follows: (dose: 100.0 mg/kg/injection, vehicle: saline) 60 % of control; (dose: 200.0 mg/kg/injection, vehicle: saline) 80 % of control; (dose: 400.0 mg/kg/injection, vehicle: saline) 56 % of control; (dose: 800.0 mg/kg/injection, vehicle: saline) 33 % of control. Further, the survivor count reads like this: (dose: 1200.0 mg/kg/injection, vehicle: saline) 0 of 6 on day 15; (dose: 2400.0 mg/kg/injection, vehicle: saline) 0 of 6 on day 15.
